Experimental data taken from patent US8772007 (dated 2014).
Results are given in words; binding and its absence hold for the method and conditions named. Some entries that bind do so weakly or less than the wild type.

Biological target: Sinorhizobium meliloti SmeI (SMa1993) (Sinorhizobium meliloti)
Experiment: self-association inferred from Sephadex 200 sizing column elution

B1: Sinorhizobium meliloti SmeI (SMa1993) (enzyme)
chain: MTINSHSWRTLMVEKRSVLCFGDSLTWGWIPVKGSSPTLRYPYEQRWTGAMAARLGDGYHIIEEGLSARTTSLDDPNDARLNGSTYLPMALASHLPLDLVIIMLGTNDTKSYFHRTPYEIANGMGKLVGQVLTCAGGVGTPYPAPKVLVVAPPPLAPMPDPWFEGMFGGGYEKSKELSGLYKALADFMKVEFFAAGDCISTDGIDGIHLSAETNIRLGHAIADKVAALF
  binding: binds
